Some of the results follow. The data scatter; read single values as rough.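 Many melting curves are irregular; where none melted, Tm was taken as 64 °C.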

Protein sequences, listed by entry. Tags and fused reporters are not part of them. Lines headed by an entry give the natural chain unless they say otherwise; changes in a name come on top.
UniProt Q8TDX7: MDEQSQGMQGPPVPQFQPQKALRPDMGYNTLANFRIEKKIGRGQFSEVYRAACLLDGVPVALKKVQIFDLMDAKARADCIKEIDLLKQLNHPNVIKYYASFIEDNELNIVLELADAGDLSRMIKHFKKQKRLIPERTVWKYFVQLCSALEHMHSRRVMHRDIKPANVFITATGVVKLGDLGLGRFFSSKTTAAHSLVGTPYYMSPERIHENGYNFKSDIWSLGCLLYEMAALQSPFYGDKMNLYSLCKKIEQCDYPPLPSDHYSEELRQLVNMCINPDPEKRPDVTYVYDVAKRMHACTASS
UniProt Q8N9N2: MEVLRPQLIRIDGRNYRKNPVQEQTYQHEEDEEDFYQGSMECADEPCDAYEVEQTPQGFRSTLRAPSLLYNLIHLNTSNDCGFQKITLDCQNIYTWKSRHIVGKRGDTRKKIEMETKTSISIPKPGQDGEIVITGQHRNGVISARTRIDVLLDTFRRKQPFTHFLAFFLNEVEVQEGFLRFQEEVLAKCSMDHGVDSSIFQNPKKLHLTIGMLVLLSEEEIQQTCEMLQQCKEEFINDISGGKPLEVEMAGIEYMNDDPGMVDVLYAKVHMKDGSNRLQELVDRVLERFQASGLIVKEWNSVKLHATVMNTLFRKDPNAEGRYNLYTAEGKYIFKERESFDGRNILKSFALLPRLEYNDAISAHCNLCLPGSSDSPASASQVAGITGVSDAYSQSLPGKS
UniProt Q8NDA8: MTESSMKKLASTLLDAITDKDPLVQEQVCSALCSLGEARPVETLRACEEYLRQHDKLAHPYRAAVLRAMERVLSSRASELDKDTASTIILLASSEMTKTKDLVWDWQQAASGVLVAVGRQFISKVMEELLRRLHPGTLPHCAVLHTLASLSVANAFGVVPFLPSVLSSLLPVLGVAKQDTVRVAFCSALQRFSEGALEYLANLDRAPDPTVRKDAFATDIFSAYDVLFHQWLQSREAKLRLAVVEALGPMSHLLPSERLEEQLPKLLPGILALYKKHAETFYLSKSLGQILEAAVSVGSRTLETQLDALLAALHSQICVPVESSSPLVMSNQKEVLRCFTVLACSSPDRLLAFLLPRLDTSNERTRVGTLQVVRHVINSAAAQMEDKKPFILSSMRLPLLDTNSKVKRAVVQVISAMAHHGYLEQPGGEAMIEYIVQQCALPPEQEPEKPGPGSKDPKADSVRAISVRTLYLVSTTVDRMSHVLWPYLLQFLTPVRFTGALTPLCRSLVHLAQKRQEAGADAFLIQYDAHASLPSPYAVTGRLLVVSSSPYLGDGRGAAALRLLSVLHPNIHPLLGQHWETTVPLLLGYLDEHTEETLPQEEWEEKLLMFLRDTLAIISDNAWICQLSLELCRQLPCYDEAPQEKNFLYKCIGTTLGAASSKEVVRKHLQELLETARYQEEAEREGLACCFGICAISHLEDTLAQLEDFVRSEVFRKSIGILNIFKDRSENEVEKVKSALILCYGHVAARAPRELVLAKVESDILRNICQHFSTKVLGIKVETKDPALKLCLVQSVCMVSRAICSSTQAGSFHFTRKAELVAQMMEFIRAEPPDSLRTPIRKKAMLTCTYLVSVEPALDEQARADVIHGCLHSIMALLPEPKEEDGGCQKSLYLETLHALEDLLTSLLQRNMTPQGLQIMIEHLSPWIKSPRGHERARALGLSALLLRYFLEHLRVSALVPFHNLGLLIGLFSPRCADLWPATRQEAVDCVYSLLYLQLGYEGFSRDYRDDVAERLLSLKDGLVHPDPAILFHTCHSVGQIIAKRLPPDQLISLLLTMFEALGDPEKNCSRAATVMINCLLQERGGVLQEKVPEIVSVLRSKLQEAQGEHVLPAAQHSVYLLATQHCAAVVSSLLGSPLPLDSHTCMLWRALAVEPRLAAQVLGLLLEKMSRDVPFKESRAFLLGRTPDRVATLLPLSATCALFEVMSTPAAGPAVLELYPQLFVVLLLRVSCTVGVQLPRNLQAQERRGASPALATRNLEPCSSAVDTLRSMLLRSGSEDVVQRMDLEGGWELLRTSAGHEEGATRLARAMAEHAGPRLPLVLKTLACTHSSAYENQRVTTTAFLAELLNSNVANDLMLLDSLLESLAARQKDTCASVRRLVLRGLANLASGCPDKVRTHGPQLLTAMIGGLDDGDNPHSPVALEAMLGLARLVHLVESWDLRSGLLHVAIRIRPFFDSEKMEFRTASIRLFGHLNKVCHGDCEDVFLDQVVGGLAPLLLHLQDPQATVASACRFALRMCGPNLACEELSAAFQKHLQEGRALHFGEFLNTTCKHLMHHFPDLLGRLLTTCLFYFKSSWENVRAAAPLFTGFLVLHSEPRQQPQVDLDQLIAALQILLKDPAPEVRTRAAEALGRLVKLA
UniProt Q8WVX9: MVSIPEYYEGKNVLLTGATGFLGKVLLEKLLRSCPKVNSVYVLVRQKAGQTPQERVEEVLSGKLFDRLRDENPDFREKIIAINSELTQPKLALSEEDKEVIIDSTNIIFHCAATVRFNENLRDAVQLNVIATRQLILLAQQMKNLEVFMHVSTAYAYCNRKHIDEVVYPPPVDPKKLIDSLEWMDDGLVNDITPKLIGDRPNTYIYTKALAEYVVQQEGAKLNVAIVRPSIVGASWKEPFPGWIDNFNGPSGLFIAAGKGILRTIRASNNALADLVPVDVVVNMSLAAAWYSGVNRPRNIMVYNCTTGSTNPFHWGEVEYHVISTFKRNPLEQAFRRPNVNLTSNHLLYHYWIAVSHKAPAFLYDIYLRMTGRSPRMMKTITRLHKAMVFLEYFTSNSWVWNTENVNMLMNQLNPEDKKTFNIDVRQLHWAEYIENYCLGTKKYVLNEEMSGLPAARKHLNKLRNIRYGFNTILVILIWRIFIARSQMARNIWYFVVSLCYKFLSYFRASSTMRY
UniProt Q8TDZ2: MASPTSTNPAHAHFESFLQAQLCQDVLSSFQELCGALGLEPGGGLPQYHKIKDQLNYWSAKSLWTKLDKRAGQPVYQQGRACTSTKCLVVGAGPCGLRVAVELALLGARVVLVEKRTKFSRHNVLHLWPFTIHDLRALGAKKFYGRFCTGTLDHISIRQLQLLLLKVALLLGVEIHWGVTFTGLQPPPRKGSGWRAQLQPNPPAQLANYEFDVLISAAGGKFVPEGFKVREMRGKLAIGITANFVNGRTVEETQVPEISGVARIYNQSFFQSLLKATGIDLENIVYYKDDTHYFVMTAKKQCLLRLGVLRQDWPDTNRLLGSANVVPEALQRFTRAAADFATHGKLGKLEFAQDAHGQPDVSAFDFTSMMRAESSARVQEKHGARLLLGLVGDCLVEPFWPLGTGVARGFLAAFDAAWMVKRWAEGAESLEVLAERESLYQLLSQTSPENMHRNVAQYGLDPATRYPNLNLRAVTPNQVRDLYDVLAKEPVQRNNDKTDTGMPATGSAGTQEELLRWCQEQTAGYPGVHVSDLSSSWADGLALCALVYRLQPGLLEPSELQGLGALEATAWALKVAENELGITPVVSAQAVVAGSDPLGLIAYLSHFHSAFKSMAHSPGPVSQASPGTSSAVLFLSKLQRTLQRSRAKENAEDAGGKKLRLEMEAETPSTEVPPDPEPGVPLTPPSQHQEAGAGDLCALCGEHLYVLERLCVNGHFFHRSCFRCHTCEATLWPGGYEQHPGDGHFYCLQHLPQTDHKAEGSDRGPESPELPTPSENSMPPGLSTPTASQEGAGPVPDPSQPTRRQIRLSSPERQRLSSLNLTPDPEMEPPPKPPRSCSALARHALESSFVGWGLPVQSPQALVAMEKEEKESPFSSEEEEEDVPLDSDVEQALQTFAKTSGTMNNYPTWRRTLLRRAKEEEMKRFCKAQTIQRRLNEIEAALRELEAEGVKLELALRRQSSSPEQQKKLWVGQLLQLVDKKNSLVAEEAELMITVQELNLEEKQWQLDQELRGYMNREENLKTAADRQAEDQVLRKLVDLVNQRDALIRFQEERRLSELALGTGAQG
UniProt Q8NCE0: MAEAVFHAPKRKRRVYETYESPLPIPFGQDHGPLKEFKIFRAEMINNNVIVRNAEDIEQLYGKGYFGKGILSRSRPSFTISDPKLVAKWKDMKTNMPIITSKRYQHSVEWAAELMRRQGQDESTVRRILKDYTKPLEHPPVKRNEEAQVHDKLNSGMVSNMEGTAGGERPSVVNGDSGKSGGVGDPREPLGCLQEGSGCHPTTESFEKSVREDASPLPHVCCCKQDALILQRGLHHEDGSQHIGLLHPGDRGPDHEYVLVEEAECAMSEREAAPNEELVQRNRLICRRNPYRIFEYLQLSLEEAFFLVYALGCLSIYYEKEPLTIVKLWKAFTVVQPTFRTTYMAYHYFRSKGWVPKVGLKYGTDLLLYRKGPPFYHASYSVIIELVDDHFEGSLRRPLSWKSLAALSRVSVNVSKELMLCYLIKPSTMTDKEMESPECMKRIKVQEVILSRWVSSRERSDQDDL
UniProt Q8N960: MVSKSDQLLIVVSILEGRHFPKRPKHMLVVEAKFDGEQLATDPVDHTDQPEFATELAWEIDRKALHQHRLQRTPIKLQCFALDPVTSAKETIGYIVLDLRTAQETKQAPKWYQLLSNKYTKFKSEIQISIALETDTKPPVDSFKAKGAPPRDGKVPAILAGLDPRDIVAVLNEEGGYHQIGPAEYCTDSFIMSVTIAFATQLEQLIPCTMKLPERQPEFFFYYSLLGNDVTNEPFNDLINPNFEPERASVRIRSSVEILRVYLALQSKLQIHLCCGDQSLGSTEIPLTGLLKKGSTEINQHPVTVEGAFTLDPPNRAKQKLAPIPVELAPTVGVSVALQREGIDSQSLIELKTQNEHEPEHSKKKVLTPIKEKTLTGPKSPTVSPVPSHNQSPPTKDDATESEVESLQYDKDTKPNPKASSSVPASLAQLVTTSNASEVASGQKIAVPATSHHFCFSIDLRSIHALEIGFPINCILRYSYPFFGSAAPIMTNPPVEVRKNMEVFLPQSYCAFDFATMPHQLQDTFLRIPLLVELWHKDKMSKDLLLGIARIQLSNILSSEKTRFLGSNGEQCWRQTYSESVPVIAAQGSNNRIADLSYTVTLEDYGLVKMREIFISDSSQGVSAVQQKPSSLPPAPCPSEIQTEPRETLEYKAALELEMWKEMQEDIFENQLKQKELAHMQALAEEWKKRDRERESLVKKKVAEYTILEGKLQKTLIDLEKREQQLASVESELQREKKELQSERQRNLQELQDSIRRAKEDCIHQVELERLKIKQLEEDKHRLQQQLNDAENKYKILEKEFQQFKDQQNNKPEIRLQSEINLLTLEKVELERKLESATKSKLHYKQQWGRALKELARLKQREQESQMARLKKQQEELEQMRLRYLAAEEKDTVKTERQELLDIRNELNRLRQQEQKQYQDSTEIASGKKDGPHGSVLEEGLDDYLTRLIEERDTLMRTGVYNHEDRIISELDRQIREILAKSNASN
UniProt Q8TE02: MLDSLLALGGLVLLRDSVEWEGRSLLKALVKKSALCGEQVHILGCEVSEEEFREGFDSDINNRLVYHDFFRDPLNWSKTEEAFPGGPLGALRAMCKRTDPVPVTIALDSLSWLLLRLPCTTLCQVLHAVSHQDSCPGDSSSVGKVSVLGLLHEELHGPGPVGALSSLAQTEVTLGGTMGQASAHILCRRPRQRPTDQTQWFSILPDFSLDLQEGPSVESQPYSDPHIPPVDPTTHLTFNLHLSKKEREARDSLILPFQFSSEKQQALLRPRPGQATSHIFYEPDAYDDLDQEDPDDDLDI
UniProt Q8WV22: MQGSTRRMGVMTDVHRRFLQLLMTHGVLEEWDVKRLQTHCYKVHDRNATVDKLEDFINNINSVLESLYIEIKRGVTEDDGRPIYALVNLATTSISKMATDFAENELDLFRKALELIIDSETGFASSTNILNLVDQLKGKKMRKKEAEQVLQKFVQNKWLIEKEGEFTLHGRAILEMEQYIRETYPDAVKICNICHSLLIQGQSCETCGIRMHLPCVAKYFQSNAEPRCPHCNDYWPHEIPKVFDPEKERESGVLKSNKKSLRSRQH
UniProt Q8NHP6: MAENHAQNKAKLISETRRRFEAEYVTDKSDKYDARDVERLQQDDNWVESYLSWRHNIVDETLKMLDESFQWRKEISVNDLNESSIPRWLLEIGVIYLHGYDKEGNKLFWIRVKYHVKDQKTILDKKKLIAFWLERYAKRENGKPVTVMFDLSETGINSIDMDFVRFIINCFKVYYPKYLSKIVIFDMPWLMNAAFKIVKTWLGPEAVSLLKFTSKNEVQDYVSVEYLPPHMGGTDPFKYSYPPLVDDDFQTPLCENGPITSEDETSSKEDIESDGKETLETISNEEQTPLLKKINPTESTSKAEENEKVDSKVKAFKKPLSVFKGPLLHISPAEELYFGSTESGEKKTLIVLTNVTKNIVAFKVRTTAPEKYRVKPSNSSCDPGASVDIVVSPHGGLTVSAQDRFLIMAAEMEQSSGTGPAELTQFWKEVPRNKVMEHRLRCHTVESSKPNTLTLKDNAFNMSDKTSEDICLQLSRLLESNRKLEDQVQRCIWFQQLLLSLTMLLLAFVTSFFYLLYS

Compound in the assay: CCc1cnccc1C(=O)Nc1cc2c(cc1F)NC(=O)CC2
Description: melting temperature shift (DMSO Tm minus MBE1-treated Tm) in cellular thermal proteome profiling; higher = less thermal stabilization by MBE1 (negative = stabilized by MBE1). To be noted: A375; MBE1 concentration: 1 uM.
In the case of NEK7 (UniProt Q8TDX7), the melting temperature shift was -0.0916 °C.
For ASCC1 (UniProt Q8N9N2), the melting temperature shift stood at 0.141 °C.
With UniProt Q8NDA8, the melting temperature shift is -1.59 °C.
Under FAR1 (UniProt Q8WVX9) stands 0.592 °C; under UniProt Q8TDZ2, -0.765 °C.
For the target C12ORF29 (UniProt Q8N999), the melting temperature shift is -0.58 °C.
Regarding TSEN2 (UniProt Q8NCE0), the melting temperature shift is -0.989 °C.
In the case of UniProt Q8N960, the melting temperature shift is -3.4 °C.
On to USP32 (UniProt Q8NFA0), for which the melting temperature shift was 0.212 °C.
Regarding ELP5 (UniProt Q8TE02), the melting temperature shift was -4.4 °C.
Regarding UniProt Q8WV22, the melting temperature shift is -0.574 °C.
On to MOSPD2 (UniProt Q8NHP6), for which the melting temperature shift turned out to be 0.153 °C.

(Values after the supplement of paper PMC12595434, “Development of retinoid nuclear receptor pathway antagonists through targeting aldehyde dehydrogenase 1A3” (iScience, 2025).)
